Here are results for 21 molecules from PubChem BioAssay AID330 (DTP/NCI, 2004).

For the assay, the system named is P388 leukemia ip, CD2F1 mice, survival T/C. Description: NCI In Vivo Anticancer Drug Screen. Data for tumor model P388 Leukemia (intraperitoneal) in CD2F1 (CDF1) mice. The settings on record: T/C endpoint: median survival time, higher T/C = longer survival.
The mark [1] stands for this setting: dose: 50.0 mg/kg/injection, schedule: Q01DX009 (ip), vehicle: saline with Tween-80.
[2] abbreviates: dose: 100.0 mg/kg/injection, schedule: Q04DX003 (ip), vehicle: saline with Tween-80.
The mark [3] stands for this setting: dose: 200.0 mg/kg/injection, schedule: Q04DX003 (ip), vehicle: saline with Tween-80.
Setting [4] is: dose: 400.0 mg/kg/injection, schedule: Q04DX003 (ip), vehicle: saline with Tween-80.
[5] abbreviates: dose: 12.5 mg/kg/injection, schedule: Q01DX009 (ip), vehicle: water.
Where [6] appears, read: dose: 200.0 mg/kg/injection, schedule: Q01DX009 (ip), vehicle: saline with Tween-80.
Where [7] appears, read: dose: 100.0 mg/kg/injection, schedule: Q04DX003 (ip), vehicle: distilled water + Tween-80.
Where [8] appears, read: dose: 200.0 mg/kg/injection, schedule: Q01DX009 (ip), vehicle: saline.
Where [9] appears, read: dose: 100.0 mg/kg/injection, schedule: Q01DX005 (ip), vehicle: saline with Tween-80.
Where [10] appears, read: dose: 200.0 mg/kg/injection, schedule: Q01DX005 (ip), vehicle: saline with Tween-80.
The mark [11] stands for this setting: dose: 100.0 mg/kg/injection, schedule: Q01DX009 (ip), vehicle: water.

The list is a part of this screen's results and no random one: it gathers tests that were run many times, whatever their T/C, doses with no T/C, and many T/C values between a quarter and a half above the control. Further doses and runs are listed elsewhere. T/C is the treated group as % of the vehicle group. Some entries give survivors of the animals treated and no T/C: the source files T/C as zero there, which appears to mark a toxic dose or a test without result, not a measured value. Some survivor counts are full or nearly so, which does not show that the dose was tolerated: survival well below the control is almost never listed, so the zero probably covers shortened survival too. Survivors were counted at the toxicity check, usually on the fifth day, unless a day is given; later deaths do not show. Schedules are NCI's codes, taken here to give the interval after Q, in days (D) or hours (H), and the number of doses after X. Some doses were run more than once; the results are listed from low to high. For survival time, the PubChem record calls one and a half times the control and up active, and a quarter to a half above the control has no call in these data; cut-offs in other NCI protocols can differ.

Take `CCOC(=O)C(Cc1ccc(N(CCCl)CCCl)cc1)NC(=O)CNC(C)=O` (centres undefined): the T/C is, setting by setting: (dose: 2.0 mg/kg/injection, schedule: Q04DX003 (ip), vehicle: saline with Tween-80) 127 % of control; (dose: 3.13 mg/kg/injection, schedule: Q04DX003 (ip), vehicle: saline) 130 % of control; (dose: 6.25 mg/kg/injection, schedule: Q04DX003 (ip), vehicle: saline) 140 % of control. The survivor count under setting [1] was 6 of 6; the survivor count (dose: 75.0 mg/kg/injection, schedule: Q04DX003 (ip), vehicle: saline with Tween-80) is listed as 6 of 6; the survivor count under setting [2] is listed as 6 of 6; the survivor count (dose: 100.0 mg/kg/injection, schedule: Q04DX003 (ip), vehicle: saline) is recorded as 6 of 6; the survivor count under setting [3] was 2 of 6; the survivor count (dose: 200.0 mg/kg/injection, schedule: Q04DX003 (ip), vehicle: saline) is given as 3 of 6. Also, the survivor count under setting [4] is reported as 4 of 6.
For the molecule `COc1cccc2c1C(=O)c1c(O)c3c(c(O)c1C2=O)C[C@@](O)(C(C)=O)C[C@@H]3OC1CC(NCc2ccccc2)C(O)C(C)O1` (some centres undefined), the T/C by setting is: (dose: 0.39 mg/kg/injection, schedule: Q01DX009 (ip), vehicle: water) 137 % of control; (dose: 0.78 mg/kg/injection, schedule: Q01DX009 (ip), vehicle: water) 137 % of control; (dose: 4.7 mg/kg/injection, schedule: Q04DX003 (ip), vehicle: water) 129 % of control. In addition, the survivor count is reported as 6 of 6 under setting [5]; 7 of 8 (dose: 30.0 mg/kg/injection, schedule: Q04DX003 (ip), vehicle: water); 8 of 8 (dose: 50.0 mg/kg/injection, schedule: Q04DX003 (ip), vehicle: water).
Consider `CCCCC1SC2=NCCCN2C1(O)c1ccc(Cl)cc1` (centres undefined), for which the survivor count under setting [6] was 0 of 6.
Turning to `Nc1c2cc3c(cc2c[n+]2ccccc12)OCO3`, the T/C (dose: 25.0 mg/kg/injection, schedule: Q04DX003 (ip), vehicle: distilled water + Tween-80) was 128 % of control; the T/C (dose: 50.0 mg/kg/injection, schedule: Q04DX003 (ip), vehicle: distilled water + Tween-80) was 130 and 141 % of control; the T/C under setting [7] was 143 % of control. Besides, the survivor count under setting [7] is reported as 6 of 6; the survivor count (dose: 200.0 mg/kg/injection, schedule: Q04DX003 (ip), vehicle: distilled water + Tween-80) was 0 of 6 and 1 of 6; the survivor count (dose: 400.0 mg/kg/injection, schedule: Q04DX003 (ip), vehicle: distilled water + Tween-80) was 0 of 6 and 1 of 6.
In the case of `COc1cc(C(=O)O)c2c(c1C)OC(=O)c1c(C)cc(O)c(C=O)c1O2`, the survivor count (dose: 50.0 mg/kg/injection, schedule: Q01DX009 (ip), vehicle: saline) was 3 of 3; the survivor count (dose: 100.0 mg/kg/injection, schedule: Q01DX009 (ip), vehicle: saline) was 0 of 3; the survivor count under setting [8] is reported as 0 of 3.
In the case of `CC1=Nc2cc(Cl)c(Cl)cc2N(C)/C1=C/C1=C(Cl)C(=O)c2ccccc2C1=O`, the survivor count under setting [6] is 1 of 6.
For the molecule `Cc1c(COC(=O)NC(C)C)c(COC(=O)NC(C)C)c2n1CSC2`, under “dose: 12.5 mg/kg/injection, schedule: Q01DX005 (ip), vehicle: Klucel + Tween-80”, the T/C is 142 % of control. Also, the survivor count (dose: 50.0 mg/kg/injection, schedule: Q01DX005 (ip), vehicle: Klucel + Tween-80) was 5 of 6 and 6 of 6; the survivor count (dose: 100.0 mg/kg/injection, schedule: Q01DX005 (ip), vehicle: Klucel + Tween-80) is 3 of 6; the survivor count (dose: 200.0 mg/kg/injection, schedule: Q01DX005 (ip), vehicle: Klucel + Tween-80) is on record as 0 of 6.
For the molecule `CC(=O)OC1C(O)C(C)OC(OC(=O)C2CCC3C(C2)OC2(CC(OC(=O)/C=C/c4ccccc4)C(C)CO2)C32CO2)C1OC1OC(C)C(O)C(O)C1O` (centres undefined), the T/C reads like this: (dose: 4.0 mg/kg/injection, schedule: Q01DX005 (ip), vehicle: saline + alcohol) 127 % of control; (dose: 8.0 mg/kg/injection, schedule: Q01DX005 (ip), vehicle: saline + alcohol) 128 and 134 % of control; (dose: 16.0 mg/kg/injection, schedule: Q01DX005 (ip), vehicle: saline + alcohol) 140 % of control.
For the molecule `CSCCC(NC(=O)OCC1c2ccccc2-c2ccccc21)C(=O)O` (centres undefined), where the note is “dose: 200.0 mg/kg/injection, schedule: Q01DX005 (ip), vehicle: Klucel (hydroxypropylcellulose) (HPC)”, the survivor count is on record as 2 of 6.
In the case of `N#CN(Cc1ccccc1)C(c1ccccc1)(c1ccccc1)c1ccccc1.[Cl][Sn]([c]1ccccc1)([c]1ccccc1)[c]1ccccc1`, the survivor count runs as follows: (dose: 50.0 mg/kg/injection, schedule: Q01DX005 (ip), vehicle: saline with Tween-80) 0 of 6; under setting [9], 0 of 6; under setting [10], 0 of 6.
Turning to `Cc1c(-c2ccccc2)ccnc1/C=N/NC(=S)NCCCN(C)C`, the survivor count is 2 of 6 (dose: 100.0 mg/kg/injection, schedule: Q01DX009 (ip), vehicle: other) and 0 of 6 (dose: 200.0 mg/kg/injection, schedule: Q01DX009 (ip), vehicle: other).
Take `O=C1C(=O)c2ccccc2C(O)=C1CC=C(Cl)Cl`: the survivor count is recorded as 0 of 6 under setting [11]; 3 of 6 (dose: 200.0 mg/kg/injection, schedule: Q01DX009 (oral), vehicle: water); 0 of 6 (dose: 400.0 mg/kg/injection, schedule: Q01DX009 (oral), vehicle: water).
`Nc1n[n+](-c2ccc(Cl)cc2)no1`: the T/C runs as follows: under setting [5], 133 % of control; (dose: 25.0 mg/kg/injection, schedule: Q01DX009 (ip), vehicle: water) 137 % of control. Also, under setting [11], the survivor count is 0 of 6 and 2 of 6.
In the case of `Nc1ccc(CCCCc2ccc(S(=O)(=O)F)cc2Cl)c(Cl)c1`, under “dose: 60.0 mg/kg/injection, schedule: Q01DX005 (ip), vehicle: saline with Tween-80”, the survivor count is listed as 6 of 6.
For the molecule `CC(N)C(O)c1ccc(O)cc1` (centres undefined), the survivor count (dose: 600.0 mg/kg/injection, schedule: Q01DX009 (ip), vehicle: saline) was 2 of 6 and 3 of 6.
As for `CCOCCC(=NC(C)(C)C)Nc1ccccc1C`, under setting [8], the survivor count is on record as 0 of 6.
Turning to `Clc1[nH]nc2ccccc12`, the survivor count is 6 of 6 under setting [2], 6 of 6 under setting [3] and 3 of 6 under setting [4].
As to `CC(=O)O.CC(=O)O.[NH-]C(CCC(N)=O)C(=O)O.[NH-]C(CCC(N)=O)C(=O)O.[Ni+2]` (centres undefined), the survivor count is, setting by setting: under setting [1], 5 of 6; (dose: 100.0 mg/kg/injection, schedule: Q01DX009 (ip), vehicle: saline with Tween-80) 0 of 6; under setting [6], 0 of 6.
For the molecule `CCOC(=O)C(c1ccccc1)N(CCCN(CC)CC)c1ccccc1` (centres undefined), the survivor count is 0 of 5 under setting [9] and 0 of 5 under setting [10].
`COc1cc(OC)c(OC)cc1/C=C/C1=C(C)C(=O)CC(c2cc(OC)c(OC)cc2OC)C1C` (centres undefined): the survivor count (dose: 400.0 mg/kg/injection, schedule: Q01DX001 (ip), vehicle: Klucel (hydroxypropylcellulose) (HPC)) is on record as 6 of 6.
On to `O=P1(N(CCCl)CCCl)Nc2cccc3cccc(c23)N1`, for which the T/C (dose: 50.0 mg/kg/injection, schedule: Q01DX009 (ip), vehicle: Klucel (hydroxypropylcellulose) (HPC)) is 128 % of control.
